Results deposited as PubChem BioAssay AID1259254 (NCATS, 2017).

- Test: 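Gene knock-downs that lead to re-replication, shown by excess G2 DNA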 (primary screen)
- Cell system: human HCT116 colorectal cancer cells
- Knock-down reagent: single siRNA against human genes
- Timing: 3 days
- Read-out: 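Nuclei stained with Hoechst and imaged; cell-cycle phase assigned by DNA content; G2 share scaled per plate, non-targeting siRNA 0%, GMNN siRNA 100%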
- Direction: G2 robust z-score: higher = more G2 cells, more excess DNA replication
- Hit rule: 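Active siRNAs have a G2 robust z of 5 or more median absolute deviations over the median, which in these data means about 38% or higher of GMNN control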
Shown is one part, drawn at random, of about 59,000 reagents tested. About 1,550 of all reagents (2.6%) were called active. 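G2 share is only a proxy for re-replication; each gene was hit by three separate siRNAs, and active genes were retested.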 The numbers tell different reagents against one gene apart. Further read-outs or replicates are left out here. Reagent sequences are not shown. Not stated in the record: the amount of reagent.

G2 robust z-score, by target gene and reagent
INPP5A (GeneID 3632): #1 -0.0133 inactive; #2 -0.344 inactive; #3 -1.03 inactive
CDK10 (GeneID 8558): #1 0.154 inactive; #2 -0.0445 inactive; #3 -0.632 inactive
TTC29 (GeneID 83894): #1 -0.463 inactive; #2 0.145 inactive; #3 -0.841 inactive
HIPK1 (GeneID 204851): #1 -0.657 inactive; #2 0.139 inactive; #3 -0.692 inactive
NOMO2 (GeneID 283820): #1 0.415 inactive; #2 -0.583 inactive; #3 -0.592 inactive
PGK1 (GeneID 5230): #1 0.121 inactive; #2 0.392 inactive; #3 -0.355 inactive
KATNAL1 (GeneID 84056): #1 0.103 inactive; #2 0.308 inactive; #3 -0.566 inactive
ZNF93 (GeneID 81931): #1 -1.11 inactive; #2 -0.966 inactive; #3 3.37 inactive
RIPPLY3 (GeneID 53820): #1 1.25 inactive; #2 0.723 inactive; #3 0.0452 inactive
FAM90A1 (GeneID 55138): #1 -0.0975 inactive; #2 -1.1 inactive; #3 0.683 inactive
REPIN1 (GeneID 29803): #1 -0.997 inactive; #2 -0.993 inactive; #3 -0.267 inactive
YBX1P6 (GeneID 402375): #1 3.54 inactive; #2 -0.613 inactive; #3 0.365 inactive
IRF5 (GeneID 3663): #1 0.15 inactive; #2 -1.79 inactive; #3 -0.819 inactive
SPATA17 (GeneID 128153): #1 -0.114 inactive; #2 4.47 inactive; #3 0.642 inactive

Looked up above:
Entry for TTC29 (GeneID 83894) #1 under “G2 robust z-score”: -0.463
INPP5A (GeneID 3632) #2, Outcome → inactive
For “G2 robust z-score”, YBX1P6 (GeneID 402375) #2 reads -0.613
Result for NOMO2 (GeneID 283820) #2 in “Outcome”: inactive
For “G2 robust z-score”, IRF5 (GeneID 3663) #3 has -0.819
Entry of NOMO2 (GeneID 283820) #3 under “Outcome”: inactive

Next entries follow:
G2 robust z-score, by target gene and reagent
CLEC4A (GeneID 50856): #1 1.03 inactive; #2 0.271 inactive; #3 7.43 active
TNFRSF19 (GeneID 55504): #1 -0.624 inactive; #2 -0.307 inactive; #3 -0.14 inactive
CCN5 (GeneID 8839): #1 -0.476 inactive; #2 -0.77 inactive; #3 -0.5 inactive
FRMD6-AS1 (GeneID 145438): #1 -0.0773 inactive; #2 -0.745 inactive; #3 0.237 inactive
COL9A1 (GeneID 1297): #1 0.745 inactive; #2 0.851 inactive; #3 -0.743 inactive
CACNB1 (GeneID 782): #1 2.15 inactive; #2 0.304 inactive; #3 -1.18 inactive
TENM2 (GeneID 57451): #1 0.771 inactive; #2 -0.368 inactive; #3 -0.261 inactive
PCDHA6 (GeneID 56142): #1 -0.711 inactive; #2 -0.737 inactive; #3 3.35 inactive
AHSA1 (GeneID 10598): #1 -0.705 inactive; #2 11.8 active; #3 -0.153 inactive
MTHFD1 (GeneID 4522): #1 -1.03 inactive; #2 -1.42 inactive; #3 -0.301 inactive
DSC3 (GeneID 1825): #1 -0.972 inactive; #2 -1.24 inactive; #3 1.27 inactive
ZNF548 (GeneID 147694): #1 -0.108 inactive; #2 -0.786 inactive; #3 -0.112 inactive
VASN (GeneID 114990): #1 -0.173 inactive; #2 -0.311 inactive; #3 -0.744 inactive
PKIA (GeneID 5569): #1 -0.65 inactive; #2 -0.854 inactive; #3 0.104 inactive
AP2A2 (GeneID 161): #1 -1.1 inactive; #2 -1.61 inactive; #3 -0.879 inactive
